Source: ChEMBL document CHEMBL3988442, “University of Dundee, Small-Polar-MMV Screening Library” (2021).

Sequences of proteins named here, by UniProt entry; tags and fusion partners are left off.
UniProt E9BF75, entry or part of it: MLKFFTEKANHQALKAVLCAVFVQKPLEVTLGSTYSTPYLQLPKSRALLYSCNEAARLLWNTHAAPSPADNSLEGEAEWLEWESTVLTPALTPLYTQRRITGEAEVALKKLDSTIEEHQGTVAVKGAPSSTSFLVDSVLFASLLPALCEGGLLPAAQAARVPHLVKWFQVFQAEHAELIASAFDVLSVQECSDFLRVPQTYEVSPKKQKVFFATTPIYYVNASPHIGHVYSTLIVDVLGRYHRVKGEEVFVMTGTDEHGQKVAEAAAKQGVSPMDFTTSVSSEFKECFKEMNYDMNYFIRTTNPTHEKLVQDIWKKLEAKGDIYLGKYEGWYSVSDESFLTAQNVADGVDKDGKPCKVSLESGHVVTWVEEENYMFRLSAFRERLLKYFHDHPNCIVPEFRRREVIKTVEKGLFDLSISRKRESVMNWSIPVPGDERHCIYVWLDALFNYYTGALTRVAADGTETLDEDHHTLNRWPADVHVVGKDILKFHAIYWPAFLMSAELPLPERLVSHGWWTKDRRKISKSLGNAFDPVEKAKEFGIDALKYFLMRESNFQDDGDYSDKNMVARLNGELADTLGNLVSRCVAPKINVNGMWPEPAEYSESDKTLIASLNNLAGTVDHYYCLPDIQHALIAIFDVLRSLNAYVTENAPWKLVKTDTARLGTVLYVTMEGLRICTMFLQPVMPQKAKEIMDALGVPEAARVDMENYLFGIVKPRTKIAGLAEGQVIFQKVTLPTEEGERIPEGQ

Results are percentages, as filed. The record does not define 0% and 100%; most values in the screen are far below 50% and negative numbers occur (in some assays of this library far below -100). This is an unselected part of the compounds tested.

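Primary screen of methionyl-tRNA synthetase; the read-out is not stated. Target: Methionyl-tRNA synthetase (putative), Leishmania donovani (UniProt E9BF75). The test concentration is not given. Values are per cent inhibition. Of about 68,000 compounds tested this way, about 24 (0.035%) reached 50% or more in at least one test.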

structure	inhibition
c1ccc2sc(NCC3(N4CCOCC4)CCSC3)nc2c1 (stereo not shown)	11.14%
CCn1cc2c(n1)CN(S(=O)(=O)c1cccnc1)CC2COC (stereo not shown)	15.68%
COc1ccc2nc(CCNC(=O)c3cc(CC(C)C)no3)[nH]c2c1	19.22%
FC(F)(F)c1n[nH]c2c1CN(CCc1ccccn1)CC2	7.459%
Cn1c(CN2CCCC2)nnc1C1CCCN(C(=O)N2CCOCC2)C1 (stereo not shown)	13.19%
CN(Cc1ccc2c(c1)OCO2)Cc1cscn1	-0.304%
CS(=O)(=O)N1CC2(CCN(CC3CCCCC3)C2)Cc2ccccc21 (stereo not shown)	2.857%
O=C(COc1coc(CN2CCOCC2)cc1=O)Nc1ccc(Cl)cc1	16.06%
O=C(CC1CCCC1)N[C@H]1CN(Cc2c[nH]cn2)C[C@@H]1C1CC1	10.68%
CC(C)c1ocnc1C(=O)N1CC(=O)Nc2cccnc21	10.66%
Cc1noc2ncc(S(=O)(=O)Nc3cc(C(C)(C)C)n[nH]3)cc12	1.918%
Cc1ccc(C)c(CS(=O)(=O)CC(=O)N(C)Cc2cccc(F)c2)c1	1.796%
CCc1nnc2n1CCN(Cc1nc3c(F)cccc3[nH]1)C2	7.283%
CCCN(C)CC1CCN(c2ncc(Br)cn2)C1 (stereo not shown)	6.25%
CCn1cc(CN2C[C@H]3CC[C@@H]2CN(C(=O)c2ccncc2)C3)cn1	2.448%
CCCc1noc(C2CCCCN2C(=O)C2CCCC2)n1 (stereo not shown)	-27.05%
CCc1c(C)nc2n(c1=O)CC(C(=O)Nc1nc3c(s1)CCCC3)CS2 (stereo not shown)	20.59%
CN1CCN(c2cc(CNC(=O)Cn3cccn3)ccn2)CC1	12.02%
COc1ccc(CNC(=O)NCC(=O)NC2CC2)c(C(F)(F)F)c1	9.677%
N#Cc1cccc(CN(CC(=O)N2CCCC2)CC2CCCO2)c1 (stereo not shown)	10.42%
CC(C)c1nnc2n1CCN(CCC(=O)Nc1sccc1C#N)C2	25.57%
CCc1nccn1CCCNc1nccc(-c2c(C)nn(C)c2C)n1	5.459%
CCOC(=O)N1CCN(c2nc(C)ncc2CC)CC1	-2.452%
CNc1cc(N2CCCC2CNCc2cscn2)ncn1 (stereo not shown)	12.63%
O=C(Cc1ccc(F)cc1)NCC1CCN(Cc2ccsc2)CC1	16.9%
CC(C)CN1CCC(NC(=O)c2ccc(F)cc2F)CC1	12.18%
O=C(CCc1nc2cccnc2[nH]1)NCc1ccncc1	11.21%
COc1cc(CNC(=O)CNc2cc(Cl)ccc2OC)ccn1	9.804%
COc1ccc2c(c1)nc1n2[C@@H](CNCc2nccs2)COC1	7.692%
Cc1nc(CN2CCCC(Nc3ncnc4ccccc34)C2)no1 (stereo not shown)	-1.381%
O=C(NC(CC(F)(F)F)c1ccc(Cl)cc1)c1nc(=O)[nH][nH]1 (stereo not shown)	14.04%
CC(C)c1noc(CS(=O)(=O)Cc2nc(C(C)C)no2)n1	7.829%
Cc1nc(CN2CCOC(Cn3cncn3)C2)nc2ccccc12 (stereo not shown)	11.81%
COC(=O)c1sccc1S(=O)(=O)NCCc1ccoc1	10.07%
CN(CCN1CCOC1=O)CC(=O)Nc1cc(F)cc(F)c1	19.09%
C[C@@H]1CN(S(C)(=O)=O)C[C@]12CCN(Cc1cccnc1)C2=O	4.808%
c1ccc(C2CCCN(c3ncnc4c3CCNC4)CC2)cc1 (stereo not shown)	21.83%
O=C(NCCCn1ccnc1)Nc1ccn(CCc2ccccn2)n1	3.817%
Cc1nnc(CN2CCN(CC(O)c3cccc(F)c3)CC2)n1C (stereo not shown)	16.67%
C1CCC(N2CCCN(c3nc(C4CC4)no3)CC2)C1	7.971%
CCCNC(=O)NC(=O)CNc1c(F)cccc1N1CCCC1	12.11%
Cc1cccn2c(=O)cc(OC(=O)c3ccccc3)nc12	12.68%
O=C1Nc2ccccc2CC12CCCN2Cc1ccc(F)cc1 (stereo not shown)	4.571%
CC(=O)N(C)Cc1cccc(NC(=O)c2cnn(C)c2C)c1	-1.579%
Cc1nc(C2CCCN(C(=O)c3cc(Cl)c4c(c3)OCO4)C2)no1 (stereo not shown)	20.34%
CN(c1ncnc2sccc12)C1CCCN(c2cccnn2)C1 (stereo not shown)	12.37%
Cc1ccc(S(=O)(=O)Nc2cccnc2O)cc1C	20.57%
CCOCC(O)CN1CCN(C(=O)c2cccc(F)c2)CC1 (stereo not shown)	3.261%
CNC(=O)[C@@H]1CCO[C@@H]2CCN(Cc3ccsc3)C[C@H]21	9.95%
O=C(c1ccc2c(c1)CCC2)N1CCN(c2ccc(Cl)cn2)CC1	25.47%
O=C(CCCNc1ncccn1)N1CCCC(n2cccn2)C1 (stereo not shown)	5.556%
CCc1nnc2n1CCN(Cc1ncc(-c3ccc(Cl)cc3)o1)C2	8.743%
CCc1cnc(CN(C(C)=O)C2CCN(CC3(O)CCCCC3)C2)o1 (stereo not shown)	10.34%
Cc1ccc(CNc2ccn(CCC(N)=O)n2)c(Br)c1	13.6%
CN1CC(=O)N(c2ccccc2)CC12CCN(C(=O)c1cnccn1)C2 (stereo not shown)	5.205%
O=C(CCCN1CCOCC1)N1CCCC(CO)(CC2CC2)C1 (stereo not shown)	11.17%
Cc1ccc(CNC(=O)N(Cc2ccccc2F)C2CC2)cn1	15.61%
O=C1NC(c2cnc(C3CCC3)s2)Nc2ccccc21 (stereo not shown)	14.93%
CC(C)c1nc(C2CCCN(C(=O)CCc3cscn3)C2)no1 (stereo not shown)	23.89%
COc1ccc(CNCC2CN(C3CC3)CCO2)cc1F (stereo not shown)	11.63%
COCCN1CC[C@H]2CN(Cc3ccc(C)s3)C[C@@H]2C1=O	15.13%
COc1ccc(Cl)cc1NC(=O)CN1CCc2nc(NC(C)=O)sc2C1	7.034%
Fc1cccc(CNCC2OCCc3cn(CC4CCOCC4)nc32)c1 (stereo not shown)	20%
CN(CC(=O)N(C)C1CCCCC1)Cc1nc2ccccc2c(=O)[nH]1	6.41%
CN(C)C(=O)CN1CCC2(CCCN(Cc3cccs3)C2)C1=O (stereo not shown)	17.03%
Cc1ccc(CC(=O)N2Cc3nccn3CC(CN(C)C)C2)cc1 (stereo not shown)	14.5%
COc1cc(N2CCC[C@]3(C(=O)O)CN(C(C)C)C[C@@H]3C2)ncn1	11.35%
CCCn1ncc(CN(CCN(C)C)Cc2ccsc2)c1C	2.041%
O=C1CCCN1Cc1ncn2c1CN(C(=O)c1cccc(F)c1)CCC2	13.75%
CCc1cc(N2CCS(=O)(=O)CC2)n2nc(C)c(C)c2n1	1.818%
O=C(CCn1ncc2c(Cl)cccc21)NCCCO	8.291%

7 of the entries, repeated:

structure,inhibition
CCn1cc2c(n1)CN(S(=O)(=O)c1cccnc1)CC2COC (stereo not shown),15.68%
CC(=O)N(C)Cc1cccc(NC(=O)c2cnn(C)c2C)c1,-1.579%
O=C(NCCCn1ccnc1)Nc1ccn(CCc2ccccn2)n1,3.817%
CCc1nnc2n1CCN(Cc1ncc(-c3ccc(Cl)cc3)o1)C2,8.743%
Cn1c(CN2CCCC2)nnc1C1CCCN(C(=O)N2CCOCC2)C1 (stereo not shown),13.19%
CCn1cc(CN2C[C@H]3CC[C@@H]2CN(C(=O)c2ccncc2)C3)cn1,2.448%
Cc1nnc(CN2CCN(CC(O)c3cccc(F)c3)CC2)n1C (stereo not shown),16.67%